Patent US20120318262A1 (priority 2011, published 2012)
Entries after “also recorded” stand apart in the source; their conditions may differ. At least one structure is not confirmed: it was looked up by name or label, or the drawing left a doubt.

Assays:
[1] = tested on: C57Bl/6 mice; experiment: 2 mm ear punch wound model; assay type: in vivo; settings: for histology of wounded ear: day 30
Source text: (FIG. 8A) Low magnification (4×) view of H&E stained slide showing epithelial repair of wounded skin treated with 211 at 30 days after injury. […] (FIGS. 8C-D) represent H&E of low (10×) and high (20×) magnification view of pyrvinium-treated ears. (FIGS. 8E-F) Trichrome blue staining showing low (FIG. 8E, 10×) and high power (FIG. 8F, 20×) view of pyrvinium-repaired ear.
The ears of six month old C57BL/6 mice were wounded by a 2 mm ear punch (n=3). […] The wounds were monitored over a period of 1 month and the digital photographs of the healing ears were taken periodically. […] The mice were sacrificed at day 30 and histological analysis of the wounded ear was performed.
FIGS. 8C-D show H&E stained slide of low (10×) and high (20×) magnifications of pyrvinium-treated ears.

[2] = tested on: AXIN2 and c-MYC; experiment: real-time RT-PCR of endogenous Wnt target genes; assay type: cell-based; settings: normalized to β-actin mRNA

Structure (SMILES): Cc1cc(/C=C/c2ccc3cc(N(C)C)ccc3[n+]2C)c(C)n1-c1ccccc1 [pyrvinium, 6-(Dimethylamino)-2-[2-(2,5-dimethyl-1-phenyl-1H-pyrrol-3-yl)ethenyl]-1-methylquinolinium]
- closing of ear hole ([1]; One μM aqueous solution each day, within two weeks): enhanced closing of the ear hole; also recorded: enhanced wound repair
- histology of wounded ear [1]: evidence of proliferating chondrocytes; also recorded: new hair follicles within repaired area as well as migrating chondrocytes
- histology of wounded ear ([1]; listed as Pyrvinium): effects regenerative repair of ear wounds
- levels of endogenous Wnt target genes AXIN2 and c-MYC [2]: decreases levels of endogenous Wnt target genes AXIN2 and c-MYC
